The other results are listed elsewhere or left out. The main result of the screen is listed elsewhere. These columns were measured beside it and carry no call. Most of these compounds were active or inconclusive in the main read-out, so they are no random draw. Words in brackets tell the shape of the fitted curve; partial curves, single points and poor fits give uncertain potencies.
Assay: qHTS Assay for Lipid Storage Modulators in Drosophila S3 Cells;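 on cell number change: cells counted by Cell Tracker Red CMTPX staining in the red channel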
Details: BODIPY lipid droplet fluorescence, 18-24 h; for cell number change: measured here: cell count max response, cells fed with added oleic acid
Method in brief: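 Laser-scanning cytometry quantifies lipid droplet accumulation (500–530 nm total intensity; droplet/cell object ratio) in oleic acid-fed (400 uM added) Drosophila S3 cells treated with a concentration series. 20 uM Triacsin C defined 100% inhibition.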

[1] = measured here: lipid fluorescence (Fed channel) AC50, cells fed with added oleic acid
[2] = measured here: cell number channel AC50, cells fed with added oleic acid

Row | Structure (SMILES) | cell number change [%] | AC50 [1] | AC50 [2]
1 | Cn1c(CCN2CCCCC2)nc2cc(NS(=O)(=O)c3ccc(F)cc3)ccc21 | -13.7 |  | 
2 | O=C(COC(=O)[C@H](Cc1ccccc1)NC(=O)c1ccco1)NCc1ccccc1 | -19 | 29.1 µM [rising, single point] | 
3 | Cc1noc(C)c1COC(=O)c1ccc(F)c(S(=O)(=O)N2CCCCC2)c1 | 13.3 |  | 0.82 µM [rising, partial curve, poor fit]
4 | CCOc1ccccc1NC(=O)c1ccc2ccccc2c1 | 7.3 | 0.13 µM [rising, full curve, poor fit] | 
5 | O=C(c1cc(COc2ccc3ncccc3c2)on1)N1CCC(O)CC1 | 12.1 | 1.03 µM [rising, full curve, poor fit] | 
6 | CCCn1c(=O)c(C(=O)NNC(=O)Cc2ccccc2)c(O)c2ccccc21 | 6.41 |  | 
7 | Cc1ccccc1C(=O)NC1CCN(CC(=O)N2CCCCC2C)CC1 (stereo not given) | -3.85 |  | 
8 | CCOCCCNC(=O)C(c1ccc(OC)cc1)N(Cc1ccc2c(c1)OCO2)C(=O)c1ccccn1 (stereo not given) | -41.9 | 29.1 µM [falling, single point] | 32.6 µM [falling, single point]
9 | Cn1c(=S)n(C)c2ccccc21 | -48.2 | 20.6 µM [falling, single point] | 29.1 µM [falling, single point]
10 | FC(F)(F)c1ccc(C2[C@H]3CN(Cc4cccnc4)[C@H](c4ccccc4)C34CC2(c2cccnc2)C4)cc1 (stereo not given in full) |  | 2.06 µM [rising, partial curve, poor fit] | 
11 | COc1ccccc1C(=O)NCCC(=O)Nc1ccc(S(=O)(=O)N2C(C)CCCC2C)cc1 (stereo not given) | -0.184 | 6.51 µM [falling, full curve] | 
12 | CCOC(=O)c1sc2ncn(C(CC)C(=O)OCC)c(=O)c2c1C (stereo not given) | -21.1 | 1.64 µM [rising, full curve, poor fit] | 
13 | Cn1c(C(=O)N2CCN(c3ccccn3)CC2)cc2ccccc21 | 12.9 | 32.6 µM [falling, single point] | 
14 | O=C(CN1C(=O)NC(c2ccccc2)(c2ccccc2)C1=O)NCc1ccccc1 | -8.65 |  | 
15 | Cc1cccc2sc(NC(=O)CSCc3ccccc3)nc12 |  | 0.326 µM [falling, partial curve, poor fit] | 
16 | COc1ccc(S(=O)(=O)CC(=O)c2cc3cc(Br)ccc3oc2=O)cc1 | -27.6 | 6.51 µM [falling, single point] | 
17 | CNC(=O)c1ccsc1NC(=O)c1ccc(S(=O)(=O)N2CCc3ccccc32)cc1 | 4.87 | 2.06 µM [rising, partial curve, poor fit] | 
18 | CCOC(=O)c1c(S(=O)(=O)NCc2cccs2)c(C)n(C)c1C | -7.58 | 29.1 µM [falling, single point] | 
19 | CC(C)CNC(=O)COc1cccc(C(=O)NCc2ccccc2)c1 | 10.9 | 5.17 µM [rising, single point] | 
20 | CCOc1ccc(NC(=O)CCCNC(=O)Cn2cnc3sc(C)c(C)c3c2=O)cc1 | 18.4 |  | 

Row | Structure (SMILES) | cell number change [%] | AC50 [1] | AC50 [2]
21 | CCCc1cc(=O)[nH]c(SCC(=O)N(CC)c2c(N)n(Cc3ccccc3)c(=O)[nH]c2=O)n1 | 2.5 |  | 
22 | COc1cc(OC)c(NC(=O)[C@@H]2CCC(=O)N2C2OC(=O)c3c2ccc(OC)c3OC)cc1Cl (stereo not given in full) |  | 29.1 µM [falling, single point] | 
23 | CCC(C)N1C(=O)CCC1C(=O)N1CCN(c2ccc(F)cc2)CC1 (stereo not given) | -89.3 | 18.4 µM [falling, partial curve] | 20.6 µM [falling, single point]
24 | CC(C)c1ccccc1NC(=O)COC(=O)Cc1cccc(C(F)(F)F)c1 |  | 7.31 µM [falling, partial curve, poor fit] | 0.731 µM [falling, single point]
25 | O=[N+]([O-])c1ccc(NCc2ccncc2)cc1 | 39.6 |  | 3.26 µM [rising, partial curve, poor fit]
26 | Cc1c(C)c2cc(Cl)c(O)c(CN(C)C)c2oc1=O | -8.41 | 0.517 µM [falling, partial curve] | 
27 | COc1cccc(C(=O)COc2ccc3c(C)c(Cc4ccccc4)c(=O)oc3c2C)c1 | 111 |  | 29.1 µM [rising, single point]
28 | CC(NC(=O)C(C)N1CCN(Cc2ccccc2)CC1)c1ccc(F)cc1 (stereo not given) | 15 | 6.51 µM [rising, single point] | 
29 | CC(C)(C)CC(=O)NC(=S)N1CCCCCC1 | 0.279 |  | 
30 | O=C(CCc1n[nH]c(=O)[nH]c1=O)Nc1cccc([N+](=O)[O-])c1 | 7.05 | 7.31 µM [rising, single point] | 
31 | Cc1nn(-c2ccccc2)c(C)c1NC(=O)COC(=O)/C=C/c1ccccc1 |  | 29.1 µM [rising, single point] | 
32 | CS(=O)(=O)c1ccc(NC(=O)C2CCCN(C(=O)c3ccc(Cl)cc3)C2)cc1 (stereo not given) | 0.857 | 0.461 µM [rising, single point] | 
33 | Cc1sc2ncnc(SCc3ccco3)c2c1C | 96.5 |  | 10.3 µM [rising, partial curve]
34 | O=C(c1nnsc1S(=O)(=O)c1ccc(Cl)cc1)N1CCOCC1 | -63.4 |  | 5.17 µM [falling, partial curve, poor fit]
35 | CC1CCC2(CC1)NC(=O)N(CC(=O)c1ccc(Cl)s1)C2=O (stereo not given) | -13.2 | 5.8 µM [rising, full curve] | 
36 | CCCCC(Sc1nc(N)c(NC(=O)c2ccc(OC)cc2)c(=O)[nH]1)C(=O)O (stereo not given) | 41.7 | 0.164 µM [falling, full curve, poor fit] | 
37 | COc1ccc2oc(C(=O)NC(C)(C)C)c(C)c2c1 | -1.09 | 23.1 µM [falling, single point] | 
38 | O=c1c(-c2ccc(Br)cc2)[n+]([O-])c2ccccc2n1OCc1ccccn1 | -22.4 |  | 4.11 µM [falling, single point]
39 | O=C(Nc1ccc2nc(N3CCOCC3)sc2c1)c1ccc(F)cc1 | 3.35 | 0.731 µM [rising, single point] | 

Rewritten comma-delimited: part of the list above
Row,Structure (SMILES),cell number change [%],AC50 [1],AC50 [2]
21,CCCc1cc(=O)[nH]c(SCC(=O)N(CC)c2c(N)n(Cc3ccccc3)c(=O)[nH]c2=O)n1,2.5,,
29,CC(C)(C)CC(=O)NC(=S)N1CCCCCC1,0.279,,
32,CS(=O)(=O)c1ccc(NC(=O)C2CCCN(C(=O)c3ccc(Cl)cc3)C2)cc1 (stereo not given),0.857,"0.461 µM [rising, single point]",

Reference: PubChem BioAssay AID2685 (National Center for Advancing Translational Sciences (NCATS), 2010)
